These are yes or no findings as the source states them, for the method shown. Some binding calls cover weakened binding; strength is not graded here.
Experiments:
[1] = biological target: recombinant protein comprising the whole extracellular part of IL1RI (UniProt P14778); assay: SPR (BiaCore 2000), IL1RI ectodomain immobilised on CM5 chip
[2] = biological target: recombinant protein comprising the whole extracellular part of IL1RI (UniProt P14778); assay: SPR, IL1RI immobilised on sensor chip

Protein sequences, listed by entry. Tags and fused reporters are not part of them. Lines headed by an entry give the natural chain unless they say otherwise; changes in a name come on top. Residues count along the entry.
UniProt P14778, residues 18-336: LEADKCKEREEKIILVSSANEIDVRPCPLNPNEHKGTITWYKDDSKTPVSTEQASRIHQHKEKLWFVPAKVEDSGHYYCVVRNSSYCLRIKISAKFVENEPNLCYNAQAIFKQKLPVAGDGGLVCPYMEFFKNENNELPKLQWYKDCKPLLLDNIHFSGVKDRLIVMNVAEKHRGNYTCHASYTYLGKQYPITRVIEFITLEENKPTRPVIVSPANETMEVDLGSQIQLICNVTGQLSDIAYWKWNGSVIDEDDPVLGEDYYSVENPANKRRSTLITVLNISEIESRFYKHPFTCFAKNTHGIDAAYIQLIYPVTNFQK
UniProt P18510: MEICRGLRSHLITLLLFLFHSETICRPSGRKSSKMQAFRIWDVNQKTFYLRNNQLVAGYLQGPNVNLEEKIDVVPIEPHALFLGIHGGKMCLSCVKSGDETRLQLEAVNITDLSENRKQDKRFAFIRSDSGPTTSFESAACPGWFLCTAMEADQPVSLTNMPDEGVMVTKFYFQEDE

IL1Ra protein (IL-1 receptor antagonist protein) (from UniProt P18510 26-177) (ligand)
binding [1]: binds
binding [2]: binds

From patent US20140073556A1 (published 2014)
